Counter-ions that a name gives are not always drawn. This is one part of the list. Single values are uncertain here, since repeats match poorly.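 Human kidney-derived cells stably carry a construct in which eight TEAD-binding elements drive luciferase, measured by luminescence in a drug-repurposing library screen. A hit is any compound whose signal exceeds the plate mean by more than five robust Z scores.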

This assay concerns HEK293A TEAD-LUC reporter. Description: TEAD-luciferase reporter activity (YAP activation), robust Z score vs plate; higher = stronger YAP/TEAD activation. The following applies: 24 h.

Regarding `COC(=O)[C@H](C)NP(=O)(OCC1C=C[C@H](n2cnc3c(N)ncnc32)O1)Oc1ccccc1` (stereo partly drawn), the TEAD-luciferase reporter activity was inactive: -0.816 (compound concentration: 200 nM), inactive: -0.434 (compound concentration: 2 uM) and inactive: 1.95 (compound concentration: 10 uM).
`COC(=O)C1=C(C)NC(C)=C(C(=O)OCCN2CCN(C)CC2)C1c1cccc([N+](=O)[O-])c1` (stereo not drawn): the TEAD-luciferase reporter activity (compound concentration: 200 nM) was inactive: -1.43, the TEAD-luciferase reporter activity (compound concentration: 2 uM) is inactive: -2.02 and the TEAD-luciferase reporter activity (compound concentration: 10 uM) was inactive: 3.
For `NC(=O)CN1C=CCC(C(N)=O)=C1` [Caricotamide], the TEAD-luciferase reporter activity by setting is: (compound concentration: 200 nM) inactive: -2.54; (compound concentration: 2 uM) inactive: 1.4; (compound concentration: 10 uM) inactive: -0.623.
In the case of `Cc1ccc(/C=C/C(=O)NCCCCN2CCN(C(c3ccccc3)c3ccccc3)CC2)cn1`, the TEAD-luciferase reporter activity is inactive: 3.09 (compound concentration: 200 nM), inactive: 0.435 (compound concentration: 2 uM) and inactive: 4.49 (compound concentration: 10 uM).
On to `CCCCCCCCCCCCCCCC(=O)OCCC1CCN(CCCN2c3ccccc3Sc3ccc(S(=O)(=O)N(C)C)cc32)CC1` [Pipotiazine Palmitate], for which the TEAD-luciferase reporter activity (compound concentration: 2 uM) was inactive: -1.21.
For the compound `CCCCCCCCCCCCCCCC(=O)OCCC1CCN(CCCN2c3ccccc3Sc3ccc(S(=O)(=O)N(C)C)cc32)CC1` [pipotiazine palmitate], the TEAD-luciferase reporter activity is, setting by setting: (compound concentration: 200 nM) inactive: 0.0871; (compound concentration: 2 uM) inactive: 4.03; (compound concentration: 10 uM) inactive: -0.666.
`CCO`: the TEAD-luciferase reporter activity by setting is: (compound concentration: 2 uM) inactive: -0.0634; (compound concentration: 10 uM) inactive: -0.849.
For the compound `COc1cc(N2CCC(N3CCN(C)CC3)CC2)ccc1Nc1ncc(Cl)c(Nc2ccccc2P(C)(C)=O)n1` [Brigatinib], the TEAD-luciferase reporter activity is inactive: -0.828 (compound concentration: 200 nM), inactive: -2.16 (compound concentration: 2 uM) and inactive: -0.239 (compound concentration: 10 uM).
The corresponding values for `CCCOc1ccc(S(=O)(=O)N2CCN(CCO)CC2)cc1-c1nc2c(CCC)cn(CC)c2c(=O)[nH]1` [mirodenafil] are inactive: 0.977, inactive: -0.849 and inactive: -0.0304.
On to `COC1=Cc2ccccc2/C(=C\C(=O)O)c2ccsc21`, for which the TEAD-luciferase reporter activity by setting is: (compound concentration: 200 nM) inactive: -0.0249; (compound concentration: 2 uM) inactive: -0.122; (compound concentration: 10 uM) inactive: -0.697.
On to `CCCCCC(O)c1ccc(N2C(=O)CC[C@@H]2COCc2ccc(C(=O)OC(C)C)s2)cc1` (stereo partly drawn) [simenepag isopropyl], for which the TEAD-luciferase reporter activity reads like this: (compound concentration: 200 nM) inactive: 1.17; (compound concentration: 2 uM) inactive: 1.35; (compound concentration: 10 uM) inactive: -0.0253.
On to `CC(=O)C1=CCC2C3CC=C4C[C@@H](O)CC[C@]4(C)C3CC[C@]12C` (stereo partly drawn), for which the TEAD-luciferase reporter activity was inactive: -1.55 (compound concentration: 200 nM), inactive: -0.762 (compound concentration: 2 uM) and inactive: 0.933 (compound concentration: 10 uM).
The corresponding values for `C[C@@H]1CN[C@@H](C2CC2)C(=O)N(C)[C@H](C)C(=O)N[C@H](Cc2ccc(F)cc2)C(=O)NCCCc2ccccc2O1` are inactive: 0.0508, inactive: -0.16 and inactive: 1.91.
On to `COC(=O)C1=C(CF)NC(C)=C(C(=O)OC(C)C)C1c1c(F)ccc(Cl)c1C(F)(F)F` (stereo not drawn), for which the TEAD-luciferase reporter activity reads like this: (compound concentration: 200 nM) inactive: 1.24; (compound concentration: 2 uM) inactive: -0.262; (compound concentration: 10 uM) inactive: -1.42.
With `C=C1CC[C@H](O)C/C1=C/C=C1\CCC[C@]2(C)[C@@H]([C@H](C)/C=C/[C@H](C)C(C)C)CC[C@@H]12`, the TEAD-luciferase reporter activity reads like this: (compound concentration: 200 nM) inactive: -0.204; (compound concentration: 10 uM) inactive: 0.652.
As to `C=C1CC[C@H](O)C/C1=C/C=C1\CCC[C@]2(C)[C@@H]([C@H](C)/C=C/[C@H](C)C(C)C)CC[C@@H]12` [Ergocalciferol], the TEAD-luciferase reporter activity (compound concentration: 2 uM) was inactive: -1.47.
Take `CCCCCN(C(=O)NC)c1ccc2nc(CCCC)n(Cc3ccc(NC(=O)c4c(Cl)ccc(Cl)c4C(=O)O)cc3)c2c1`: the TEAD-luciferase reporter activity (compound concentration: 200 nM) was inactive: -0.857, the TEAD-luciferase reporter activity (compound concentration: 2 uM) was inactive: -1.94 and the TEAD-luciferase reporter activity (compound concentration: 10 uM) is inactive: -0.515.
With `CCCCCCCCN(C)CC(P(=O)(O)O)P(=O)(O)O`, the TEAD-luciferase reporter activity is inactive: -0.436 (compound concentration: 200 nM), inactive: -0.621 (compound concentration: 2 uM) and inactive: -0.84 (compound concentration: 10 uM).
`O=c1[nH]c(=O)n(Cc2ccc(OC/C=C/COc3ccc(Cn4oc(=O)[nH]c4=O)cc3)cc2)o1`: the TEAD-luciferase reporter activity is, setting by setting: (compound concentration: 200 nM) inactive: -1.81; (compound concentration: 2 uM) inactive: -0.294; (compound concentration: 10 uM) inactive: -0.107.
Consider `NCC(=O)N1Cc2ccccc2CC2(CCCCN2CC2CCOCC2)C1` (stereo not drawn), for which the TEAD-luciferase reporter activity is, setting by setting: (compound concentration: 200 nM) inactive: -1.49; (compound concentration: 10 uM) inactive: -1.08.
For the compound `CN(C)c1cc(CNCC(C)(C)C)c(O)c2c1C[C@H]1C[C@H]3[C@H](N(C)C)C(O)=C(C(N)=O)C(=O)[C@@]3(O)C(O)=C1C2=O` [omadacycline], the TEAD-luciferase reporter activity is, setting by setting: (compound concentration: 200 nM) inactive: 0.00621; (compound concentration: 2 uM) inactive: -1.01; (compound concentration: 10 uM) inactive: -0.941.
Turning to `CC(C)=CCOc1cc(NC(=S)c2ccoc2C)ccc1Cl`, the TEAD-luciferase reporter activity (compound concentration: 200 nM) is inactive: 2.13, the TEAD-luciferase reporter activity (compound concentration: 2 uM) is inactive: -0.0565 and the TEAD-luciferase reporter activity (compound concentration: 10 uM) is inactive: -0.0158.
Regarding `COC(=O)c1cnc2n1CCc1ccccc1C2=C1CCN(CCc2ccc(OCc3ccc4ccccc4n3)cc2)CC1` [[11C]Laniquidar], the TEAD-luciferase reporter activity runs as follows: (compound concentration: 200 nM) inactive: 1.11; (compound concentration: 2 uM) inactive: 1.73; (compound concentration: 10 uM) inactive: 1.25.
Take `COc1ccc(CCN(C)CCCC(C#N)(c2ccc(OC)c(OC)c2)C(C)C)cc1OC` (racemic) [(Ã ±)-Verapamil hydrochloride]: the TEAD-luciferase reporter activity reads like this: (compound concentration: 200 nM) inactive: -1.23; (compound concentration: 10 uM) inactive: -0.306.
On to `COc1cc(/C=C/C(=O)CCCCc2ccccc2)cc(OC)c1O`, for which the TEAD-luciferase reporter activity reads like this: (compound concentration: 200 nM) inactive: -0.409; (compound concentration: 2 uM) inactive: -0.132; (compound concentration: 10 uM) inactive: -0.541.
Consider `C#CCN(C)CC1=Cc2ccccc2Oc2ccccc21`, for which the TEAD-luciferase reporter activity is, setting by setting: (compound concentration: 200 nM) inactive: -0.392; (compound concentration: 2 uM) inactive: -0.231; (compound concentration: 10 uM) inactive: -0.395.
For `Cc1cc(C)nc(N2CC3CN(C(=O)c4c(F)cccc4-n4nccn4)CC3C2)n1` (stereo not drawn), the TEAD-luciferase reporter activity is inactive: -0.74 (compound concentration: 200 nM), inactive: -1.41 (compound concentration: 2 uM) and inactive: 3.2 (compound concentration: 10 uM).

(Values after the supplement of paper PMC10735217.)
